By AC50 is commonly meant the midpoint of the concentration-response curve, whichever way the signal moves.

Some of the results follow. Shown are side measurements of this screen, not its main read-out; they come without a call. Compounds called inactive in the main read-out are mostly missing here. Potencies come from curve fits of mixed quality, noted in brackets.

Experimental findings from PubChem BioAssay AID662 (National Center for Advancing Translational Sciences (NCATS), 2007) are described below.

The assay is described as follows: Cell signaling CRE-BLA (Fsk stim). To be noted: CHO CRE-bla reporter (cAMP response element driving beta-lactamase), forskolin EC10, beta-lactamase ratio; measured here: 460 nm blue channel. An outline of the steps:
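CRE-bla CHO reporter cells treated with compound titration plus EC10 NKH 477 (water-soluble forskolin), incubated 3 h at 37 °C; CCF4 loading 2 h at room temperature, 460/530 nm emission ratio read, AC50 values derived for positive or negative modulators.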
On to `C/C(CC(O)c1ccc2ccccc2n1)=N/O` (centres undefined), for which the AC50 was 0.00631 µM [falling, full curve].

For the compound `Cc1ccc(-n2c(=O)[nH]cc(C(=O)Nc3ccc4c(c3)OCO4)c2=O)cc1C`, the AC50 is 10 µM [rising, single point].

On to `CC(=O)N1CCc2cc(S(=O)(=O)CCC(=O)N3CCN(c4ccccn4)CC3)ccc21`, for which the AC50 was 25.1 µM [rising, single point].

Turning to `O=c1c2ccccc2c(C=NC2CCS(=O)(=O)C2)c(O)n1-c1ccccc1` (centres undefined), the AC50 is 25.1 µM [rising, single point].

Turning to `CC1CCCN(c2nc3c(c(=O)[nH]c(=O)n3C)n2CCCc2ccccc2)C1` (centres undefined), the AC50 was 15.8 µM [falling, partial curve].

As for `OC1CCCN(Cc2cccc3ccccc23)C1` (centres undefined), the AC50 was 0.2 µM [rising, full curve, poor fit].

`CC(=O)Oc1ccc2oc(=O)c3c(c2c1)CCCN3C(=O)CN1CCN(c2ncccn2)CC1`: the AC50 was 10 µM [rising, partial curve].

For `O=C(Nc1cccc(S(=O)(=O)C(F)F)c1)c1ccc(Cl)c(S(=O)(=O)N2CCOCC2)c1`, the AC50 was 25.1 µM [falling, single point].

For the compound `Cc1ccc(-c2cnc(-c3ccncc3)o2)cc1`, the AC50 was 1 µM [falling, single point].

For `COCCn1c(=O)c(-c2cccs2)nc2cnc(OC)nc21`, the AC50 is 2.51 µM [rising, full curve].

For the compound `COc1ccc(C2C(C#N)=C(C)NC3=C2C(=O)CC(C)(C)C3)c(OC)c1` (centres undefined), the concentration at half-maximal activity (AC50) was 10 µM [rising, single point].

As to `O=C1NCCCC1C(=O)N1CCN(C(=O)c2ccco2)CC1` (centres undefined), the concentration at half-maximal activity (AC50) was 0.501 µM [rising, partial curve].

For `CN(Cc1ccco1)c1ncnc2ccc(-c3cccc(C#N)c3)cc12`, the AC50 was 10 µM [rising, partial curve].

`COc1ccc(Br)cc1C(=O)O`: the AC50 is 25.1 µM [falling, single point].

For `COc1ccc(CCNC(=O)c2cnc3scc(C)n3c2=O)cc1OC`, the AC50 is 7.94 µM [rising, partial curve].

Take `CCSC(=N)N`: the AC50 is 15.8 µM [falling, partial curve, poor fit].

Regarding `Cc1cc2n(n1)C(c1ccco1)Nc1ccccc1-2` (centres undefined), the AC50 was 3.16 µM [rising, full curve].

As to `Cc1cc(C)n(-c2nnc(C)c(=O)[nH]2)n1`, the AC50 was 1 µM [rising, single point].

On to `COC(=O)c1ccc(C(NC(=O)OCc2ccccc2)/C(I)=C/[C@@H](C)C(=O)NCc2ccc(C)o2)cc1` (some centres undefined), for which the AC50 was 10 µM [falling, partial curve].

In the case of `CCSc1nnc2c(n1)[nH]c1c(C)cccc12`, the AC50 was 12.6 µM [rising, partial curve].

On to `O=C(N[C@@H](Cc1ccccc1)C(=O)CCl)OCc1ccccc1`, for which the AC50 was 10 µM [falling, full curve].

Turning to `COC(=O)C1=CN(CC2CCCO2)C=C(C(=O)OC)C1c1cc(OC)c(OC)c(OC)c1` (centres undefined), the AC50 was 10 µM [rising, partial curve].

For `Cc1noc(C)c1C(=O)OCC(=O)Nc1ccccc1C(=O)NC(C)c1ccccc1` (centres undefined), the AC50 is 12.6 µM [rising, single point].

As to `CCNc1ncc2nc(-c3ccccc3)c(=O)n(CCOC)c2n1`, the concentration at half-maximal activity (AC50) was 12.6 µM [rising, partial curve].

On to `Cc1ccc(S(=O)(=O)NC(=O)NC(C)(C)C)cc1`, for which the AC50 is 0.00398 µM [falling, full curve].

As to `COc1cccc(-c2cn3nc4c(nc3n2)CCCC4)c1`, the AC50 was 12.6 µM [rising, partial curve].

On to `COc1ccc(-c2noc(CCC(=O)N3CCN(c4cc(C)ccc4C)CC3)n2)cc1`, for which the AC50 was 0.1 µM [falling, full curve, poor fit].

`CCOc1ccccc1-n1c(SCC(=O)NC2CCCC2)nnc1-c1ccoc1C`: the AC50 was 0.1 µM [falling, single point].

For `C=CCn1c(SCC(=O)NCC2CCCO2)nc2scc(-c3ccco3)c2c1=O` (centres undefined), the AC50 was 7.94 µM [rising, partial curve].

As for `CC(C)(C)OC(=O)N1CCC(c2c(C(=O)O)cnn2-c2ccccc2Cl)CC1`, the AC50 is 0.00398 µM [rising, full curve, poor fit].

As for `COc1ncc2nc(C)c(=O)n(CCC#N)c2n1`, the concentration at half-maximal activity (AC50) is 25.1 µM [rising, single point].

As to `CSc1nnc2c3c4c(sc3c(=O)n(-c3ccccc3)n12)CC(C)(C)OC4`, the AC50 is 15.8 µM [rising, partial curve].

Turning to `COc1ccc(OC)c(C2C=C(c3ccc(C)c(C)c3)Nc3nnnn32)c1` (centres undefined), the AC50 was 12.6 µM [rising, partial curve].

Consider `COc1ccc(-c2nc(C)c(C(C)=O)n2O)cc1OC`, for which the AC50 is 0.00398 µM [falling, full curve, poor fit].

For `COc1cccc2c(=O)c3c(cnn3C)n(C)c12`, the AC50 was 10 µM [rising, partial curve].

As for `CCOC(=O)c1cnc(SCC(=O)Nc2nc(C)c(C)s2)nc1N`, the AC50 was 12.6 µM [rising, partial curve].

As for `CC(=O)c1c(N)[nH]c(-c2ccccc2)nc1=S`, the AC50 is 12.6 µM [rising, single point].

`Cc1ccc(SC(C)c2nc(-c3ccccc3)no2)cc1` (centres undefined): the AC50 is 0.00398 µM [falling, full curve, poor fit].

`Cc1cc(C)nc(SCNC(=O)c2ccc(F)cc2)n1`: the AC50 was 15.8 µM [rising, single point].

Take `Cn1c(=O)c2[nH]c(CNCc3ccccc3Cl)nc2n(C)c1=O`: the concentration at half-maximal activity (AC50) was 10 µM [rising, single point].

Take `COc1ccc(OC)c(NC(=O)C2C3CCC(O3)C2C(=O)O)c1` (centres undefined): the AC50 was 12.6 µM [rising, single point].

Take `CCNc1ncc2nc(CCc3ccccc3)c(=O)n(C[C@H]3CCCO3)c2n1`: the half-maximal activity concentration (AC50) is 10 µM [rising, partial curve, poor fit].

In the case of `COc1ccccc1CCn1c(=O)c(-c2ccc(F)cc2)nc2cncnc21`, the AC50 is 20 µM [rising, partial curve, poor fit].

As for `O=C(CSc1nnc2scc(-c3ccccc3)n12)Nc1nsc(-c2ccccc2)n1`, the AC50 is 5.01 µM [rising, partial curve].

On to `O=c1c(-c2cc(F)cc(F)c2)nc2cnc(N3CCNCC3)nc2n1CCc1ccccc1`, for which the AC50 is 3.16 µM [rising, full curve].

Regarding `COc1cccc(C(=O)Nc2ccc(C(=O)O)cc2)c1`, the AC50 was 12.6 µM [rising, single point].

On to `COc1cc(C(=O)Nc2c(-c3ccccn3)c(=O)c3ccccc3n2C)cc(OC)c1OC`, for which the AC50 is 0.794 µM [rising, full curve].

As to `N#Cc1nc(COc2cccc(Cl)c2)oc1NCc1ccncc1`, the AC50 is 10 µM [rising, single point].

With `CCCCOCCCn1cnc2c([nH]c3cc(OC)ccc32)c1=O`, the AC50 was 12.6 µM [rising, single point].

Regarding `CCCCN(C)CCCNC(=O)C1CC(=O)N(Cc2ccc(OC)cc2)C1` (centres undefined), the AC50 is 0.0316 µM [falling, full curve, poor fit].

Take `CN(C(=O)NC(=O)C1=C(N2CCOCC2)/C(=C/c2ccccc2)CC1)S(C)(=O)=O`: the AC50 was 15.8 µM [rising, single point].

As to `COc1ccc(C(=O)N2CCSC2=S)cc1OC`, the AC50 was 10 µM [falling, partial curve].

For `CCCC(=O)Nc1cccc(-c2cn3ccsc3n2)c1`, the concentration at half-maximal activity (AC50) is 12.6 µM [rising, single point].

As for `Cc1cc2c(c(N)n1)c(=O)oc1ccccc12`, the half-maximal activity concentration (AC50) is 1.26 µM [rising, full curve].

`CCCN1Cc2cccc(C(=O)NCc3ccc4c(c3)OCO4)c2C1=O`: the AC50 was 12.6 µM [rising, partial curve].

Turning to `Cc1nn(-c2ccc(F)cc2F)c2c1-c1nc(N3CCCC3)ncc1CC2`, the AC50 was 10 µM [rising, partial curve].

As for `CCCN1Cc2cccc(C(=O)Nc3cc(OC)cc(OC)c3)c2C1=O`, the AC50 was 1.26 µM [rising, full curve].

With `COC(=O)c1ccc(COc2cc(O)c3c(c2)OC(C)(C)CC3=O)cc1`, the AC50 was 25.1 µM [rising, single point].

In the case of `N=c1n(CCN2CCCCC2)c2ccccc2n1CC(O)c1cccc(Br)c1` (centres undefined), the concentration at half-maximal activity (AC50) was 7.94 µM [falling, partial curve].

Regarding `COc1cccc(-c2cc(=O)c3cc(O)ccc3o2)c1`, the half-maximal activity concentration (AC50) was 3.98 µM [falling, single point].

Take `CCOC(=O)N1CCN(c2nc3ccccc3nc2C(C#N)C(=O)NCCc2ccccc2)CC1` (centres undefined): the AC50 is 3.98 µM [rising, partial curve].

Regarding `COc1ccc(-c2nnn(Cc3nc(N)nc(N4CCCCC4)n3)n2)cc1`, the AC50 was 3.16 µM [rising, partial curve].

For `COCCNc1ncnc2ccc(-c3ccccc3C)cc12`, the AC50 is 6.31 µM [rising, partial curve].

Consider `CCOC(=O)N1CCN(C2=Nc3cccc4cccc2c34)CC1`, for which the AC50 is 3.16 µM [rising, full curve].

Take `O=C(c1ccccc1)N1CCN(C(=O)N2CCOCC2)CC1`: the AC50 is 0.631 µM [falling, full curve].

In the case of `CC(CCc1ccccc1)NC(=O)CN1CCN(Cc2ccccc2)C1=O` (centres undefined), the AC50 was 1 µM [rising, single point].

For `Cc1ccc(OCC(O)Cn2c(=N)n(CCN3CCCCC3)c3ccccc32)cc1` (centres undefined), the AC50 was 2 µM [rising, full curve, poor fit].

As for `COc1ccc(C(C(=O)NC2CCCC2)N(CCN(C)C)C(=O)c2snc(C(N)=O)c2N)cc1` (centres undefined), the AC50 is 5.01 µM [falling, single point].

Consider `CCN(CC)CCN1C(=O)C2C3c4ccccc4C(c4ccccc43)C2C1=O` (centres undefined), for which the AC50 was 0.00316 µM [falling, full curve, poor fit].
